From the supplement of paper PMC11546906
This is one part of the list. This data set is noisy: repeats of one test often differ as much as different tests do.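 FDA-approved drugs were each paired with colistin at one-eighth its MIC and screened against a multidrug-resistant, mcr-1-positive clinical E. coli isolate, with OD600 read after 24 h. Drug-free bacteria served as growth control, plain broth as blank. Combinations were active if OD600 dropped below 0.2.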

Tested on: Escherichia coli 42 (mcr-1-positive clinical isolate)
Assay: OD600 after 24 h growth with compound plus colistin (absorbance units (OD600)); higher = more bacterial growth (less inhibition)
Conditions: first compound 25 µM; colistin concentration 0.5 ug/mL; incubation time 24 h; 37 °C

Structure (SMILES)	OD600
N[C@@H]1CONC1=O [D-Cycloserine] + CCC(C)CCCC(=O)N[C@@H](CCN)C(=O)N[C@H](C(=O)N[C@@H](CCN)C(=O)N[C@H]1CCNC(=O)[C@H]([C@@H](C)O)NC(=O)[C@H](CCN)NC(=O)[C@H](CCN)NC(=O)[C@H](CC(C)C)NC(=O)[C@@H](CC(C)C)NC(=O)[C@H](CCN)NC1=O)[C@@H](C)O [colistin]	inactive: 0.976
CC(C)(O)c1ccccc1CC[C@@H](SCC1(CC(=O)O)CC1)c1cccc(/C=C/c2ccc3ccc(Cl)cc3n2)c1 [Montelukast] + CCC(C)CCCC(=O)N[C@@H](CCN)C(=O)N[C@H](C(=O)N[C@@H](CCN)C(=O)N[C@H]1CCNC(=O)[C@H]([C@@H](C)O)NC(=O)[C@H](CCN)NC(=O)[C@H](CCN)NC(=O)[C@H](CC(C)C)NC(=O)[C@@H](CC(C)C)NC(=O)[C@H](CCN)NC1=O)[C@@H](C)O [colistin]	inactive: 1.12
CC(C)(S)[C@@H](N)C(=O)O [Penicillamine] + CCC(C)CCCC(=O)N[C@@H](CCN)C(=O)N[C@H](C(=O)N[C@@H](CCN)C(=O)N[C@H]1CCNC(=O)[C@H]([C@@H](C)O)NC(=O)[C@H](CCN)NC(=O)[C@H](CCN)NC(=O)[C@H](CC(C)C)NC(=O)[C@@H](CC(C)C)NC(=O)[C@H](CCN)NC1=O)[C@@H](C)O [colistin]	inactive: 1.01
CC1=C(C(=O)O)N2C(=O)[C@@H](NC(=O)[C@H](N)c3ccc(O)cc3)[C@H]2SC1 [Cefadroxil] + CCC(C)CCCC(=O)N[C@@H](CCN)C(=O)N[C@H](C(=O)N[C@@H](CCN)C(=O)N[C@H]1CCNC(=O)[C@H]([C@@H](C)O)NC(=O)[C@H](CCN)NC(=O)[C@H](CCN)NC(=O)[C@H](CC(C)C)NC(=O)[C@@H](CC(C)C)NC(=O)[C@H](CCN)NC1=O)[C@@H](C)O [colistin]	inactive: 0.958
C[C@]12CCC(=O)C=C1[C@@H]1C[C@@H]1[C@H]1[C@@H]3[C@@H]4C[C@@H]4[C@@]4(CCC(=O)O4)[C@@]3(C)CC[C@@H]12 [Drospirenone] + CCC(C)CCCC(=O)N[C@@H](CCN)C(=O)N[C@H](C(=O)N[C@@H](CCN)C(=O)N[C@H]1CCNC(=O)[C@H]([C@@H](C)O)NC(=O)[C@H](CCN)NC(=O)[C@H](CCN)NC(=O)[C@H](CC(C)C)NC(=O)[C@@H](CC(C)C)NC(=O)[C@H](CCN)NC1=O)[C@@H](C)O [colistin]	inactive: 1.1
CC=CC1=C(C(=O)O)N2C(=O)[C@@H](NC(=O)[C@H](N)c3ccc(O)cc3)[C@H]2SC1 [Cefprozil monohydrate] + CCC(C)CCCC(=O)N[C@@H](CCN)C(=O)N[C@H](C(=O)N[C@@H](CCN)C(=O)N[C@H]1CCNC(=O)[C@H]([C@@H](C)O)NC(=O)[C@H](CCN)NC(=O)[C@H](CCN)NC(=O)[C@H](CC(C)C)NC(=O)[C@@H](CC(C)C)NC(=O)[C@H](CCN)NC1=O)[C@@H](C)O [colistin]	inactive: 1.1
COC(=O)[C@@H]1CC2=CC(=O)CC[C@]2(C)[C@@]23O[C@@H]2C[C@@]2(C)[C@@H](CC[C@@]24CCC(=O)O4)[C@H]13 [Eplerenone] + CCC(C)CCCC(=O)N[C@@H](CCN)C(=O)N[C@H](C(=O)N[C@@H](CCN)C(=O)N[C@H]1CCNC(=O)[C@H]([C@@H](C)O)NC(=O)[C@H](CCN)NC(=O)[C@H](CCN)NC(=O)[C@H](CC(C)C)NC(=O)[C@@H](CC(C)C)NC(=O)[C@H](CCN)NC1=O)[C@@H](C)O [colistin]	inactive: 1.06
Nc1ccc(C(=O)O)c(O)c1 [Sodium 4-aminosalicylate dihydrate] + CCC(C)CCCC(=O)N[C@@H](CCN)C(=O)N[C@H](C(=O)N[C@@H](CCN)C(=O)N[C@H]1CCNC(=O)[C@H]([C@@H](C)O)NC(=O)[C@H](CCN)NC(=O)[C@H](CCN)NC(=O)[C@H](CC(C)C)NC(=O)[C@@H](CC(C)C)NC(=O)[C@H](CCN)NC1=O)[C@@H](C)O [colistin]	inactive: 0.973
CC(=O)OCC(=O)[C@@]1(O)CC[C@H]2[C@@H]3CCC4=CC(=O)CC[C@]4(C)[C@@]3(F)[C@@H](O)C[C@@]21C [Fludrocortisone acetate] + CCC(C)CCCC(=O)N[C@@H](CCN)C(=O)N[C@H](C(=O)N[C@@H](CCN)C(=O)N[C@H]1CCNC(=O)[C@H]([C@@H](C)O)NC(=O)[C@H](CCN)NC(=O)[C@H](CCN)NC(=O)[C@H](CC(C)C)NC(=O)[C@@H](CC(C)C)NC(=O)[C@H](CCN)NC1=O)[C@@H](C)O [colistin]	inactive: 0.979
